According to US10822349B2, “Macrocyclic purines for the treatment of viral infections” (JANSSEN SCIENCES IRELAND UNLIMITED COMPANY, priority 2012, dated 2020):
Some of these results come from one statement about several compounds together.

Tests used:
human TLR8 = molecular target: T1, human TLR8 (Homo sapiens, UniProt Q9NR97); test: TLR8 cellular reporter assay (HEK293 TLR8-NFκB-luc); format: cell-based; details: lowest effective concentration; HEK293 transiently transfected with TLR8 and NFκB-luc; 6 hours incubation
T1 construct: expressed in transfected cells; host or cells: HEK293
T1 sequence (Q9NR97 27-1041): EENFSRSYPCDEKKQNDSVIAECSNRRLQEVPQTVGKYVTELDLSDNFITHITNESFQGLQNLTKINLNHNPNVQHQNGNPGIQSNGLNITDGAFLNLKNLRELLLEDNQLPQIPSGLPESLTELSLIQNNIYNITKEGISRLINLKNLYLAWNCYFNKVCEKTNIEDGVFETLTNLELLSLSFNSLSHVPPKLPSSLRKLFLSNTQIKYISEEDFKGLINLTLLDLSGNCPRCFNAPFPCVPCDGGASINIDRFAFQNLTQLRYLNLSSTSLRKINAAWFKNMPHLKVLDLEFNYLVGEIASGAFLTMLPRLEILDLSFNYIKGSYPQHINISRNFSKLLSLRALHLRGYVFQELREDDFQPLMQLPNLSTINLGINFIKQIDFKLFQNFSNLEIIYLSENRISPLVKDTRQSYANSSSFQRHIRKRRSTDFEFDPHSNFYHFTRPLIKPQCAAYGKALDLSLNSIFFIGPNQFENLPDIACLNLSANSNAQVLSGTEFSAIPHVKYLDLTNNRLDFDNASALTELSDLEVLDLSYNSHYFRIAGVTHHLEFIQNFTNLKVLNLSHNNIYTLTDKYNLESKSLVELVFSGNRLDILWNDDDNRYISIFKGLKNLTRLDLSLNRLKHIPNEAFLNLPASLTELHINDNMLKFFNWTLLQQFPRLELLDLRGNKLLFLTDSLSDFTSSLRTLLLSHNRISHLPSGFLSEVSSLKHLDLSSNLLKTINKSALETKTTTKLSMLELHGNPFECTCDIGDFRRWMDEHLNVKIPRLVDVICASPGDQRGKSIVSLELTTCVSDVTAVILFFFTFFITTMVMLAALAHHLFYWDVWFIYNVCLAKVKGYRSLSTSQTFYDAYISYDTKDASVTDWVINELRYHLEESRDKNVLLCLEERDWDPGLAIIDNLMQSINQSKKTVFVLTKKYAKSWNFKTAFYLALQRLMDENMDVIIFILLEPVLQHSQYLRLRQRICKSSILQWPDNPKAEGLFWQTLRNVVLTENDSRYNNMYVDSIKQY
Protocol: The ability of compounds to activate human TLR7 and TLR8 was assessed in a cellular reporter assay using HEK293 cells transiently transfected with a TLR7 or TLR8 expression vector and NFκB-luc reporter construct. Briefly, HEK293 cells were grown in culture medium (DMEM supplemented with 10% FCS and 2 mM Glutamine). For transfection of cells in 10 cm dishes, cells were detached with Trypsin-EDTA, transfected with a mix of CMV-TLR7 or TLR8 plasmid (750 ng), NFκB-luc plasmid (375 ng) and a transfection reagent and incubated 48 hours at 37° C. in a humidified 5% CO2 atmosphere. Transfected cells were then detached with Trypsin-EDTA, washed in PBS and resuspended in medium to a density of 1.67×10^5 cells/mL. Thirty microliters of cells were then dispensed into each well in 384-well plates, where 10 μL of compound in 4% DMSO was already present. Following 6 hours incubation at 37° C., 5% CO2, the luciferase activity was determined by adding 15 μl of Steady Lite Plus substrate (Perkin Elmer) to each well and readout performed on a ViewLux ultraHTS microplate imager (Perkin Elmer). Dose response curves were generated from measurements performed in quadruplicates. Lowest effective concentrations (LEC) values, defined as the concentration that induces an effect which is at least two fold above the standard deviation of the assay, were determined for each compound.

HEK293 NFκB-luc = test: Counterscreen: HEK293 cells transfected with NFκB-luc reporter construct alone; format: cell-based, human; details: greater than the highest tested concentration

| SMILES | LEC on HEK293 TLR8-NFκB-luc (human TLR8) | LEC on HEK293 NFκB-luc (counterscreen) (HEK293 NFκB-luc) |
| --- | --- | --- |
| Nc1nc2nc3c1nc(O)n3Cc1ccc(nc1)OCC(=O)NCCCO2 [Compound 6] | > 10 µM | > 10 µM |
| Nc1nc2nc3c1nc(O)n3Cc1ncccc1OC/C=C/CCO2 [Compound 44] | > 10 µM | > 10 µM |
| COc1ccc2cc1Cn1c(O)nc3c(N)nc(nc31)OC/C=C/CO2 [Compound 63] | > 10 µM | > 10 µM |
